# Experimental data from patent US20240148916A1 (priority 2021, published 2024).
# Assays:
# [1] = general procedure: Fmoc solid-phase peptide synthesis; Fmoc-Cys(Trt) Tentagel resin (RAPP Polymere); H-Cys(Trt)-2-CT-polystyrene resin; HBTU/HOBt/DIPEA; HATU; conditions: conjugation step
# [2] = general procedure: Fmoc solid-phase peptide synthesis; H-Cys(Trt)-2-CT-polystyrene resin; HBTU/HOBt/DIPEA; HATU; conditions: whole synthesis
substance,measurement,setting,value
Bi-ESV6-Asp-Lys-Asp-Cys-Fluorescein,conjugation yield,[1],88%
Bi-ESV6-Asp-Lys-Asp-Cys-COOH,isolated mass,[2],36 mg
same,isolated yield,[2]; scale of the general procedure 0.18 mmol,4.5%
ESV6-Asp-Lys-Asp-Cys-Fluorescein,conjugation yield,[1],19.3%
